Where “and” joins values, the source holds several entries; their conditions need not be identical. Identical values can stand only once. Counter-ions that a name gives are not always drawn. ± gives the standard deviation of the averaged measurements. Some of the results follow. Baselines shift from plate to plate; read single values as rough.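 Assay uses culture-activated primary human stellate myofibroblasts; lipid droplet recovery indicates inactivation. Measured: proportion of Hoechst-counted cells over a plate-specific Bodipy cutoff, duplicate wells, DMSO and nortriptyline as per-plate negative and positive controls. A hit scores, control-normalized, above the plate's top-tenth-percentile nortriptyline wells or ranks among its three best wells. Final well concentrations not reported.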
System: primary human hepatic stellate cells (donor 1)
Experiment: percent Bodipy-positive cells; higher = more lipid droplet accumulation
Conditions: 48 h
[1] = library stock concentration: 1 mM
[2] = library stock concentration: 3.33 mM
[3] = library stock concentration: 10 mM
[4] = library stock concentration: 80 uM
[5] = library stock concentration: 400 uM
[6] = library stock concentration: 2 mM

## O=C(O)CCCCCC[C@@H]1[C@@H](CC[C@@H](O)CCc2cccc(C(F)(F)F)c2)[C@H](O)C[C@@H]1O
[1]
  percent Bodipy-positive cells: 12.6 ± 0.69%

## CN(C[C@@H]1COCCO1)S(=O)(=O)Nc1ccc2ccc3ncc(-c4cnn(C)c4)cc3c(=O)c2c1
[2]
  percent Bodipy-positive cells: 10.6 ± 4.1%
[3]
  percent Bodipy-positive cells: 16.9 ± 4.7%

## CC(O)(CC(=O)O)CC(=O)O
[3]
  percent Bodipy-positive cells: 35.4 ± 6%

## NNC(=O)c1ccncc1.Nc1ccc(C(=O)O)c(O)c1 [Pasiniazid]
[3]
  percent Bodipy-positive cells: 38 ± 4.5%

## Cc1ccc(NC(=O)c2ccc(CN3CCN(C)CC3)cc2)cc1Nc1nc(-c2cccnc2)cs1 [Masitinib]
[3]
  percent Bodipy-positive cells: 98.78 ± 0.52%

## O=[N+]([O-])c1ccc(O)c2ncccc12
[3]
  percent Bodipy-positive cells: 53.3 ± 17%

## N#CC[C@H](C1CCCC1)n1cc(-c2ncnc3[nH]ccc23)cn1
[4]
  percent Bodipy-positive cells: 19.3 ± 2.5%
[5]
  percent Bodipy-positive cells: 12.4 ± 3.9%
[6]
  percent Bodipy-positive cells: 10 ± 3.5%
[2]
  percent Bodipy-positive cells: 17.2% and 8.81%
[3]
  percent Bodipy-positive cells: 16.1% and 12% and 5.56%

## N#CC[C@H](C1CCCC1)n1cc(-c2ncnc3[nH]ccc23)cn1 [S-Ruxolitinib]
[4]
  percent Bodipy-positive cells: 4.15 ± 1%
[5]
  percent Bodipy-positive cells: 6.47 ± 1.8%
[6]
  percent Bodipy-positive cells: 2.54 ± 0.87%
[3]
  percent Bodipy-positive cells: 8.33 ± 3.9%

## COc1cc(CNC(=O)CCCCCCC(C)C)ccc1O [Dihydrocapsaicin]
[1]
  percent Bodipy-positive cells: 14.1 ± 5.3%
[3]
  percent Bodipy-positive cells: 64.8 ± 13%

## O=C1O[C@H]([C@@H](O)CO)C(O)=C1O [Vitamin C]
[2]
  percent Bodipy-positive cells: 6.1 ± 0.36%
[3]
  percent Bodipy-positive cells: 18.9 ± 7.2%

## O=C1O[C@H]([C@@H](O)CO)C(O)=C1O [Ascorbic acid]
  percent Bodipy-positive cells: 29.6 ± 2.2%
[3]
  percent Bodipy-positive cells: 32.4 ± 1.2%

## Clc1ccc(C(c2ccccc2Cl)C(Cl)Cl)cc1 (centres undefined) [1-(2-Chlorophenyl)-1-(4-chlorophenyl)-2,2-dichloroethane]
[3]
  percent Bodipy-positive cells: 60.1 ± 1.5%

## Clc1ccc(C(c2ccccc2Cl)C(Cl)Cl)cc1 (centres undefined) [Mitotane]
[2]
  percent Bodipy-positive cells: 13.7 ± 3.7%
Library stock concentration: 6.2 mM
  percent Bodipy-positive cells: 18.2 ± 9.2%
[3]
  percent Bodipy-positive cells: 59.1% and 44.7%

## CCCCC/C=C\C/C=C\C/C=C\CCCCC(=O)O [.gamma.-Linolenic Acid]
[1]
  percent Bodipy-positive cells: 10.6 ± 1.2%

## CCCCC/C=C\C/C=C\C/C=C\CCCCC(=O)O [Gamma-linolenic acid (18:3 n-6)]
[1]
  percent Bodipy-positive cells: 7.06 ± 2.2%

## CCn1c2ccccc2c2cc(CNC)ccc21.Cl
[3]
  percent Bodipy-positive cells: 91.6 ± 1.3%

## Cc1cccc(C)c1OCC(=O)N[C@@H](Cc1ccccc1)[C@@H](O)C[C@H](Cc1ccccc1)NC(=O)[C@H](C(C)C)N1CCCNC1=O [Lopinavir]
[2]
  percent Bodipy-positive cells: 4.64 ± 3.5%
[3]
  percent Bodipy-positive cells: 11.5 ± 6.1%

## CC(C)NCC(O)COc1cccc2ccccc12.Cl (centres undefined)
[3]
  percent Bodipy-positive cells: 84.6 ± 2.1%

## CC[N+](C)(CC)CCC[n+]1c(-c2ccccc2)c2cc(N)ccc2c2ccc(N)cc21 [Propidium iodide]
  percent Bodipy-positive cells: 7 ± 0.43%
Library stock concentration: 7.5 mM
  percent Bodipy-positive cells: 12.1 ± 5%

## O=C(O)c1ccccc1Nc1cccc(C(F)(F)F)c1 [Flufenamic acid]
  percent Bodipy-positive cells: 25.2 ± 7.8%
[2]
  percent Bodipy-positive cells: 9.39 ± 0.87%
Library stock concentration: 7.1 mM
  percent Bodipy-positive cells: 7.81% and 18.8%
[3]
  percent Bodipy-positive cells: 25.7% and 36.5%
Library stock concentration: 17.8 mM
  percent Bodipy-positive cells: 9.55 ± 9.4%

## OCCc1ccccc1 [Phenylethyl alcohol]
Library stock concentration: 16.4 mM
  percent Bodipy-positive cells: 20.2 ± 14%

## O=C(O)Cn1nnc(-c2cc(N3CCC(Oc4cc(F)ccc4Br)CC3)no2)n1
[2]
  percent Bodipy-positive cells: 8.08 ± 5.3%
[3]
  percent Bodipy-positive cells: 13.9 ± 3%

## O=C(c1ccc(F)cc1)C1CCN(CCn2c(=S)[nH]c3ccccc3c2=O)CC1 [Altanserin hydrochloride]
[3]
  percent Bodipy-positive cells: 53.8 ± 22%

## O=C(c1ccc(F)cc1)C1CCN(CCn2c(=S)[nH]c3ccccc3c2=O)CC1 [Altanserin]
[3]
  percent Bodipy-positive cells: 44.6 ± 6.8%

## CC(=O)Nc1ccc(S(=O)(=O)c2ccc(NC(C)=O)cc2)cc1 [Acedapsone]
Library stock concentration: 6 mM
  percent Bodipy-positive cells: 22 ± 4.7%

## CC(C)c1cc(-c2n[nH]c(=O)n2-c2ccc3c(ccn3C)c2)c(O)cc1O [Ganetespib]
[6]
  percent Bodipy-positive cells: 64 ± 3.9%
[3]
  percent Bodipy-positive cells: 73.5 ± 7.4%

## c1ccc(-c2nn3c(c2-c2ccnc4cc(OCCN5CCOCC5)ccc24)CCC3)nc1
[4]
  percent Bodipy-positive cells: 11.4 ± 0.74%
[5]
  percent Bodipy-positive cells: 9.23 ± 2.5%
[6]
  percent Bodipy-positive cells: 8.37 ± 0.89%
[3]
  percent Bodipy-positive cells: 10.8 ± 9.7%

## O=C1Nc2ccc(Cl)cc2[C@@](C#CC2CC2)(C(F)(F)F)O1 [Efavirenz]
Library stock concentration: 6.3 mM
  percent Bodipy-positive cells: 12.9 ± 5.7%

## c1ccc2sc(N3CCN(Cc4ccc5c(c4)OCO5)CC3)nc2c1 [2-[1-(4-Piperonyl)piperazinyl]benzothiazole]
[3]
  percent Bodipy-positive cells: 7.74 ± 2.2%

## Nc1ccc(C(=O)O)c(O)c1 [Aminosalicylate sodium]
[3]
  percent Bodipy-positive cells: 8.59 ± 2.6%

## Nc1ccc(C(=O)O)c(O)c1 [4-aminosalicylic acid]
Library stock concentration: 13.1 mM
  percent Bodipy-positive cells: 6.58 ± 3.1%

## Nc1ccc(C(=O)O)c(O)c1 [Sodium 4-Aminosalicylate]
[2]
  percent Bodipy-positive cells: 11.2 ± 0.94%
[3]
  percent Bodipy-positive cells: 28.1 ± 4.9%

## COc1cc(CCc2cc(NC(=O)c3ccc(N4CC(C)NC(C)C4)cc3)n[nH]2)cc(OC)c1 (centres undefined)
[4]
  percent Bodipy-positive cells: 6.12 ± 0.23%
[5]
  percent Bodipy-positive cells: 15.5 ± 3.7%
[6]
  percent Bodipy-positive cells: 39.9 ± 9.3%
[2]
  percent Bodipy-positive cells: 74.42 ± 0.53%
[3]
  percent Bodipy-positive cells: 92.8 ± 5.3%

## C[C@@H]1CC[C@@]2(OC1)O[C@H]1C[C@H]3[C@@H]4CC=C5C[C@@H](O)CC[C@]5(C)[C@H]4CC[C@]3(C)[C@H]1[C@@H]2C [Diosgenin]
[3]
  percent Bodipy-positive cells: 31 ± 10%

## CNCc1ccc(C)c(NC(=O)c2ccc(Nc3nc(-c4ccccc4)c4ccccc4n3)cc2)c1
[3]
  percent Bodipy-positive cells: 97.8 ± 1.1%
